The structures appear in SMILES notation. This is one part of the list. Further columns of the screen follow, without active or inactive calls.

Amino acid sequences for entries named in this document (tags omitted).
UniProt P03372, whole entry, looked up: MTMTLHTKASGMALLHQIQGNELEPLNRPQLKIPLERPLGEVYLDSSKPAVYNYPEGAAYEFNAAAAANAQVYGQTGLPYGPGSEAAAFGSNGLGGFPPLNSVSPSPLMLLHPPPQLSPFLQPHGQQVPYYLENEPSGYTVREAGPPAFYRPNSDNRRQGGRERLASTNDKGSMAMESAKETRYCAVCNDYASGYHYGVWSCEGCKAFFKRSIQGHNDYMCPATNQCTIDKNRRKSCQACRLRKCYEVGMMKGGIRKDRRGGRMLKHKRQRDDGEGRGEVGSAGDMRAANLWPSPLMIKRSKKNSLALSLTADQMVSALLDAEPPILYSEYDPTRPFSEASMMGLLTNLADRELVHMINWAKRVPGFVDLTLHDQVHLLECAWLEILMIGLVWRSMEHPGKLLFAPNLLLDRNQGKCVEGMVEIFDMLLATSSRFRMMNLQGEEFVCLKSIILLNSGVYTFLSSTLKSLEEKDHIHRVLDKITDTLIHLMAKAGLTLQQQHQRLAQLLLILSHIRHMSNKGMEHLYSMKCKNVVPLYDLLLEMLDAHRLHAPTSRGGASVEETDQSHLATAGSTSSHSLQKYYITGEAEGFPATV

The values below come from PubChem BioAssay AID694 (Emory University Molecular Libraries Screening Center, 2007).

The test concerns the target Estrogen receptor (Homo sapiens) (UniProt P03372). Kind of test: ERα coactivator peptide binding inhibitors, primary screen, biochemical, LOPAC library, TR-FRET (AID 694).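 Further: receptor was agonist-bound with estradiol present during the assay.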 The following applies: TR-FRET ERalpha-coactivator peptide binding, at 15 µM, stronger effect = higher value.
Consider `O[Si](CCCN1CCCCC1)(c1ccc(F)cc1)C1CCCCC1` (stereo not drawn), for which the inhibition turned out to be 3.2%.
Take `CC1(NCC(O)COc2cccc3[nH]ccc23)CCC(C(C)(C)NC(=O)CBr)CC1` (stereo not drawn): the inhibition is 1.63%.
Under `CCOC(=O)C1=C(C)NC(C)=C(C(=O)OC)C1c1cccc([N+](=O)[O-])c1` (stereo not drawn) stands -4.29%; under `Cc1nc2c(OCc3ccccc3)cccn2c1CC#N`, -4.79%; under `O=C1c2ccccc2-c2n[nH]c3cccc1c23`, -4.39%.
Consider `COc1cc2c(c(OC)c1OC)-c1ccc(OC)c(=O)cc1[C@@H](NC(C)=O)CC2`, for which the inhibition amounted to 2.39%.
Consider `CNCCCC1c2ccccc2C=Cc2ccccc21`, for which the inhibition was 2.54%.
Take `O=C(Nc1ccccc1)c1cc([N+](=O)[O-])ccc1Cl`: the inhibition was -0.12%.
Consider `C[C@H]1CC2C3CCC4=CC(=O)C=C[C@]4(C)[C@@]3(Cl)[C@@H](O)C[C@]2(C)[C@@]1(O)C(=O)CO` (stereo partly drawn), for which the inhibition turned out to be 0.55%.
Turning to `C[N+]1(CCCCC[N+]2(C)CCCC2)CCCC1`, the inhibition was -0.57%.
On to `NC(=NCc1ccccc1)NC(=O)c1nc(Cl)c(N)nc1N`, for which the inhibition is -0.81%.
Take `Fc1ccc(C(c2ccc(F)cc2)N2CCN(C/C=C/c3ccccc3)CC2)cc1`: the inhibition stood at 0.53%.
As for `COc1cccc2c1[C@@H]1CN(CCCCn3c(=O)[nH]c4c(sc5ncc(-c6ccccc6)nc54)c3=O)C[C@@H]1CO2`, the inhibition is -0.3%.
Under `CN1CCc2cc(O)c(O)cc2C(c2ccccc2)C1` (stereo not drawn) stands 6.72%.
With `O=C(O)c1cccnc1Nc1cccc(C(F)(F)F)c1`, the inhibition was -4.11%.
With `Cc1oncc1C(=O)Nc1ccc(C(F)(F)F)cc1`, the inhibition was 1.75%.
Take `CCCCCC[C@@H]([C@@H](C)O)n1cnc2c(N)ncnc21`: the inhibition amounted to 1.04%.
The figure for `CC(C)(C(=O)O)c1ccc(C(O)CCCN2CCC(C(O)(c3ccccc3)c3ccccc3)CC2)cc1` (stereo not drawn) is -2.04%.
Consider `Cc1cc(C(C)(C)C)c(O)c(C)c1CC1=NCCN1`, for which the inhibition amounted to 5.97%.
On to `CCCCS(=N)(=O)CC[C@H](N)C(=O)O` (stereo partly drawn), for which the inhibition was found to be 2.51%.
Under `CSc1ccc2c(c1)C(N1CCN(C)CC1)Cc1ccccc1S2` (stereo not drawn) stands 3.24%; under `CCCN1C[C@H](CSC)C[C@@H]2c3cccc4[nH]cc(c34)C[C@H]21`, -4.39%.
Under `Cc1ccc(O)c(N=Nc2ccccc2)n1` stands 8.5%; under `NC(=O)C1=CN(C2OC(COP(=O)(O)OP(=O)(O)OC[C@H]3O[C@@H](n4cnc5c(N)ncnc54)C(OP(=O)(O)O)[C@H]3O)C(O)C2O)C=CC1` (stereo partly drawn), -1.52%.
For the compound `CC(O)C(O)[C@H]1CNc2nc(N)[nH]c(=O)c2N1` (stereo partly drawn), the inhibition worked out at 3.73%.
Take `CC1=C(/C=C/C(C)=C/C=C/C(C)=C/C(=O)O)C(C)(C)CCC1`: the inhibition is 5.42%.
The figure for `NCCCCN=C(N)N` is -4.22%; for `CC(=O)Oc1ccccc1C(=O)O` it is -3.48%; for `O=C(O)[C@H]1NCCC[C@H]1C(=O)O` it is -2.1%.
In the case of `NC(=O)CNCCC(c1ccccc1)c1ccccc1`, the inhibition was determined as 1.33%.
Consider `CCO/C([O-])=N/c1c[n+](N2CCOCC2)no1`, for which the inhibition is 38.8%.
`CN1C[C@H](C(=O)N[C@]2(C)O[C@@]3(O)[C@@H]4CCCN4C(=O)[C@H](Cc4ccccc4)N3C2=O)C[C@@H]2c3cccc4[nH]cc(c34)C[C@H]21`: the inhibition was -4.01%.
As for `O=C(O)C1CCCN(CCC=C(c2ccccc2)c2ccccc2)C1` (stereo not drawn), the inhibition stood at 29%.
With `C[N+](C)(C)CCCCCCCCCC[N+](C)(C)C`, the inhibition was found to be 3.25%.
Turning to `O=C(O)/C(=C/c1c(C(=O)O)[nH]c2cc(Cl)cc(Cl)c12)c1ccccc1`, the inhibition was -1.33%.
As for `N[C@@H](Cc1c[nH]c2ccc(O)cc12)C(=O)O`, the inhibition turned out to be 4.61%.
Regarding `Nc1nc(Nc2ccccc2)nc2c1ncn2[C@@H]1O[C@H](CO)[C@H](O)C1O` (stereo partly drawn), the inhibition is -6.63%.
The figure for `NC(N)=NCCSSCCN=C(N)N` is 0.94%; for `NCCCCCCNS(=O)(=O)c1cccc2c(Cl)cccc12` it is -5.27%; for `CN1C2CCC1CC(OC(c1ccccc1)c1ccccc1)C2` (stereo not drawn) it is -1.62%.
As to `CCCCCCCCCCCCCCCCCC(=O)NCC(COP(=O)([O-])OCC[N+](C)(C)C)OCC` (stereo not drawn), the inhibition stood at 4.76%.
For `CC(=O)[C@H]1CC[C@H]2[C@@H]3CCC4=CC(=O)CC[C@]4(C)[C@H]3CC[C@]12C`, the inhibition turned out to be 3.9%.
As for `Cn1c(=O)c2[nH]c(-c3ccccc3)nc2n(C)c1=O`, the inhibition is -1.59%.
As for `CN1CCN(C2Cc3ccccc3Sc3ccc(Cl)cc32)CC1` (stereo not drawn), the inhibition is -0.06%.
With `NCCCC(=O)O`, the inhibition was -8.48%.
In the case of `CC(=O)N[C@@H](Cc1c[nH]c2ccccc12)C(=O)OCc1cc(C(F)(F)F)cc(C(F)(F)F)c1`, the inhibition was -1.43%.
The figure for `CCN(CC)CCOC(=O)c1cc(Cl)c(N)cc1OC` is 5.22%; for `N.N.O=C(O)C1(C(=O)O)CCC1.[Pt+2]` it is 7.11%; for `NCCCNCCCCNCCCN` it is 0.98%.
In the case of `CCN(CC)CCNC(=O)c1cc(Cl)c(N)cc1OC`, the inhibition was -4.83%.
For the compound `O=C(O)Cc1c[nH]c2ccc(O)cc12`, the inhibition worked out at 4.54%.
For the compound `CN/C(=C\[N+](=O)[O-])NCCSCc1ccc(CN(C)C)o1`, the inhibition is 1.1%.
For the compound `C1COC(NC(C2CC2)C2CC2)=N1`, the inhibition came to 1.79%.
With `Cn1c(=O)[nH]c2ncn(C)c2c1=O`, the inhibition came to 8.13%.
Consider `CC1C(=O)N(C)C(=O)c2nc[nH]c21` (stereo not drawn), for which the inhibition was found to be 1.42%.
For `Cc1ccc(S(=O)(=O)N[C@@H](Cc2ccccc2)C(=O)CCl)cc1`, the inhibition was found to be 3.82%.
Under `c1cnc(N2CCN(Cc3ccc4c(c3)OCO4)CC2)nc1` stands 1.77%; under `Cc1ccccc1N1CCN(S(=O)(=O)C[C@]23CCC(CC2NC(=O)[C@@H](N)CCS(C)(=O)=O)C3(C)C)CC1` (stereo partly drawn), -2.77%.
Turning to `Fc1ccc(CN(C2=NCCN2)c2c(Cl)cccc2Cl)cc1`, the inhibition was 7.37%.
As to `COc1ccc2c(c1)c(CC(=O)O)c(C)n2C(=O)c1ccc(Cl)cc1`, the inhibition was 2.24%.
Under `Nc1nc2ccc(OC(F)(F)F)cc2s1` stands 3.15%; under `O=C(O)c1cc(=O)cc(C(=O)O)[nH]1`, -1.49%.
`CNC[C@H](O)c1ccc(O)c(O)c1`: the inhibition is -0.57%.
As for `O=C(CCc1ccc(O)cc1)c1c(O)cc(O)cc1O`, the inhibition was determined as 15.8%.
Regarding `O=c1[nH]c2cc([N+](=O)[O-])c([N+](=O)[O-])cc2[nH]c1=O`, the inhibition amounted to 4.66%.
Under `COc1cccc(-c2cc(=O)c3ccccc3o2)c1N` stands 0.3%; under `C[N+](C)(C)CCO`, -5.46%; under `CCCCCCCCCCCCCCC[C@H](O)[C@H](N)CO`, 35.3%.
With `Nc1ccn([C@H]2CC[C@@H](CO)O2)c(=O)n1`, the inhibition was -1.46%.
As to `Cc1cccc(C)c1OCC(C)N` (stereo not drawn), the inhibition worked out at 5.04%.
In the case of `COc1ccccc1N1CCN(CCCCN2C(=O)c3ccccc3C2=O)CC1`, the inhibition stood at 0.84%.
Turning to `O=[N+]([O-])c1ccc(CSc2ncnc3c2ncn3[C@@H]2O[C@H](CO)[C@H](O)C2O)cc1` (stereo partly drawn), the inhibition is 0.51%.
In the case of `CCCc1c(-c2ccc(O)cc2)nn(-c2ccc(O)cc2)c1-c1ccc(O)cc1`, the inhibition amounted to 36.6%.

As usually defined, the inhibition is the drop in the measured response relative to a control, in per cent.
